In PubChem BioAssay AID1671190 (National Center for Advancing Translational Sciences (NCATS), 2021):
Screen size: about 580,000 compounds; about 6,100 (1.1%) were called active. The shares of active, inactive and inconclusive entries below differ from those in the screen. The call rests on the fitted dose curve; in most records, active means well fitted inhibition curve with a large enough effect; inconclusive means small, poorly fitted or top-dose-only effect, or another doubt; inactive means no such curve, though single readings can be large or run the other way. Potencies of inconclusive entries are doubtful fits and often do not repeat. Where a structure was tested more than once in an assay, its records may differ in their call.

Chains of the proteins cited; added tags and fusions are not shown. Lines headed by an entry give the natural chain unless they say otherwise; changes in a name come on top.
UniProt P18054: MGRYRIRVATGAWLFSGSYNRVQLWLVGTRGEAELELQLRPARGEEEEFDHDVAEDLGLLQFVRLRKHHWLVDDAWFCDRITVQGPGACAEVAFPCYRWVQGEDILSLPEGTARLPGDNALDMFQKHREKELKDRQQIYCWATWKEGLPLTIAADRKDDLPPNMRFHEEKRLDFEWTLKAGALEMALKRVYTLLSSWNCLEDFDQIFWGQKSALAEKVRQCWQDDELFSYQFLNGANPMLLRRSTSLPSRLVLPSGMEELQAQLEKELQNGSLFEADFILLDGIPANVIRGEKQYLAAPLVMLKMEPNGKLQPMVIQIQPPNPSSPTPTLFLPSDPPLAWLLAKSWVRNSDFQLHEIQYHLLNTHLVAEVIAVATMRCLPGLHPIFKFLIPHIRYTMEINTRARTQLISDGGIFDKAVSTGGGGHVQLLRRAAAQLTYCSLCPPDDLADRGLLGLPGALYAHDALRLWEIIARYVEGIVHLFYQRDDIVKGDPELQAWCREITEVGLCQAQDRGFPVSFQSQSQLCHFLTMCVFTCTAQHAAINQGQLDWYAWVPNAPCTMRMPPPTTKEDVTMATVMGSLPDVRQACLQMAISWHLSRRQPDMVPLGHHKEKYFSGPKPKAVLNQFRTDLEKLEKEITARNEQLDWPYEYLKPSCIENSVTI

These molecules were tested against Polyunsaturated fatty acid lipoxygenase ALOX12 (Homo sapiens) (UniProt P18054) (assay: Primary qHTS assay for inhibitors of human arachidonate 12S-lipoxygenase (ALOX12): Round 2). Conditions: purified 12hLO, xylenol orange hydroperoxide absorbance; activity change, negative = inhibition: at 108 µM (top of the series) unless noted.
In short: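 Purified human 12hLO at 150 nM in 25 mM Hepes, 0.01% Triton X-100, pH 7.0, preincubated 15 min at room temperature with compound. Reaction started with 40 uM arachidonic acid, 30 min at room temperature. Hydroperoxide measured by Fe-xylenol orange, 573/405 nm absorbance ratio.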
On the % scale 0 is the no-effect control and ±100 the full control effect; potency means the concentration at half of the fitted maximal effect.

| Compound | Potency | activity change, negative = inhibition |
| --- | --- | --- |
| CCCC1=C/C(=C/c2ccc(-c3ccccc3OC)o2)C(=O)O1 | inconclusive: 44.7 µM [inhibitor, partial curve, poor fit] |  |
| O=C(c1nc2ccc(Cl)cn2c1CN1CCCC1)N1CCc2ccccc2C1 | inactive |  |
| C[C@@H](CC(=O)O)[C@@H](N)C(=O)O | active: 20 µM |  |
| CN1CCN(c2ncc3nc(-c4cc(F)cc(F)c4)c(=O)n(CCC#N)c3n2)CC1 | inconclusive: 12.6 µM [inhibitor, partial curve, poor fit] |  |
| Cc1cc2cc(CNC(=S)Nc3ccc(OC(F)F)cc3)ccc2[nH]1 | inconclusive: 31.6 µM [inhibitor, partial curve, poor fit] |  |
| COc1cccc(CNC(=O)c2ccc3noc(-c4ccc(C)cc4)c3c2)c1 | inconclusive: 10 µM [inhibitor, full curve, poor fit] |  |
| COc1ccc(CN(C)c2nn3c(=O)cc(C)nc3s2)cc1OC | inactive |  |
| CCOC(=O)N1CCN(C(=O)c2cnn3c(C(F)(F)F)cc(-c4cccs4)nc23)CC1 | inconclusive: 126 µM [inhibitor, single point] |  |
| Cc1nc2nc(SCC(=O)Nc3cccc(Cl)c3C)[nH]c2cc1Br | inconclusive: 12.6 µM [inhibitor, full curve, poor fit] |  |
| COc1ccc(CNC(=O)CSc2nc(C3CC3)nc3ccccc23)cc1 | inconclusive: 44.7 µM [inhibitor, single point] |  |
| O=S(=O)(c1ccc(C(F)(F)F)cc1)N1CCCN(c2ccc(C(F)(F)F)cn2)CC1 | inconclusive: 79.4 µM [inhibitor, partial curve, poor fit] |  |
| COc1ccc(CN(C)C2CCc3nn(C)c(=O)n3CC2)cc1Cn1cccn1 (centres undefined) | inactive |  |
| CN[C@@H]1CC[C@H](c2ccc(Cl)c(Cl)c2)c2ccccc21 | inconclusive: 44.7 µM [inhibitor, partial curve, poor fit] |  |
| CC(=O)Nc1ccc2c(c1)C(N1CC3CCC(CC3)C1)c1ccccc1-2 (centres undefined) | inconclusive: 44.7 µM [inhibitor, partial curve, poor fit] |  |
| Brc1cccc(OCCn2ccnc2)c1 | inconclusive: 0.316 µM [inhibitor, full curve, poor fit] |  |
| CCN(CC)C(=O)[C@H]1C[C@H](CC(=O)NCc2ccc(OC)c(OC)c2)C(=O)N2CCc3c([nH]c4cc(-c5ccco5)ccc34)[C@]12C | inconclusive: 112 µM [inhibitor, single point] |  |
| CCC(C(=O)NCc1ccc(OC)cc1)c1ccccc1 (centres undefined) | inactive |  |
| NS(=O)(=O)c1cccc2c1c([N+](=O)[O-])cc1[nH]c(=O)c(=O)[nH]c12 | inconclusive: 2 µM [inhibitor, partial curve, poor fit] |  |
| COc1ccc(-c2ccc(/C=C3/C(=N)N4C(C)=CSC4=NC3=O)o2)c([N+](=O)[O-])c1 | inconclusive: 70.8 µM [inhibitor, partial curve, poor fit] |  |
| Cc1ccccc1CN1C(=O)C(C)S/C1=N/N=C/c1ccco1 (centres undefined) | inconclusive: 31.6 µM [inhibitor, full curve, poor fit] |  |
| C[C@@H]1CCCCO[C@@H](CN(C)S(=O)(=O)c2ccccc2)[C@@H](C)CN([C@H](C)CO)C(=O)c2cc(N(C)C)ccc2O1 | inconclusive: 79.4 µM [inhibitor, single point] |  |
| C=CCOc1ccccc1C(=O)/C=C1/C(=O)Nc2ccccc21 | inactive |  |

| Compound | Potency | activity change, negative = inhibition |
| --- | --- | --- |
| CCCc1cc(=O)[nH]c(SCC(=O)N2CCN(S(=O)(=O)c3cc(C)ccc3C)CC2)n1 | inactive |  |
| CCOC(=O)c1cccc(Nc2nc(-c3cccnc3)nc3ccccc23)c1 | inconclusive: 79.4 µM [inhibitor, partial curve, poor fit] |  |
| CCc1ccc(-c2cc(C)no2)cc1S(=O)(=O)NCc1ccc(OC)cc1 | inconclusive: 126 µM [inhibitor, partial curve, poor fit] |  |
| CCC(C)NC(=O)CSc1nc(-c2ccco2)nc2ccccc12 (centres undefined) | inactive |  |
| CCOCCOc1cc(NCc2ccccc2)c2ncn(C(C)C)c2c1 | inconclusive: 44.7 µM [inhibitor, partial curve, poor fit] |  |
| O=[N+]([O-])c1cccc2nc(/C=C/c3cccc(C(F)(F)F)c3)ccc12 | inconclusive: 7.94 µM [inhibitor, full curve, poor fit] |  |
| CCCN(CCC)C(=S)NC1CC2C=CC1C2 (centres undefined) | inconclusive: 0.282 µM [inhibitor, full curve, poor fit] |  |
| COc1cc(C2NC(=S)NC(O)(C(F)(F)F)C2C(=O)c2cccs2)cc(OC)c1O (centres undefined) | inactive |  |
| C=C(C)CC1Cc2c(Br)cccc2C(CC(=C)C)N1 (centres undefined) | inconclusive: 50.1 µM [inhibitor, single point] |  |
| CC(C)=CCc1c(C)nc2ccccc2c1C(=O)O | inconclusive: 50.1 µM [inhibitor, partial curve, poor fit] |  |
| COCCNC(=O)c1cc(-c2ccccc2)n(CC2CC(c3ccc(OC)cc3)=NO2)n1 (centres undefined) | inconclusive: 112 µM [inhibitor, single point] |  |
| COc1ccc2c(c1)CCc1c-2n[nH]c1C(=O)NCCC(C)C | inactive |  |
| COc1ccccc1N1CCN(/N=C/c2ccc(OC)c(OC)c2OC)CC1 | inactive |  |
| COCCCNC(=O)CN1C(=O)COc2ccc(C(=O)COc3ccc(OC)cc3)cc21 | inconclusive: 8.91 µM [inhibitor, partial curve] |  |
| Fc1cccc(Cl)c1/C=N/n1c(-c2cccnc2)n[nH]c1=S | inconclusive: 44.7 µM [inhibitor, partial curve, poor fit] |  |
| CCN(c1ccccc1)S(=O)(=O)c1cc(C(=O)NCC(c2ccco2)N2CCCCC2)ccc1C (centres undefined) | inactive |  |
| CN1CCN(C(=O)C2=C[C@H](c3csc4ccccc34)C[C@H](OCCCCO)O2)CC1 | inconclusive: 112 µM [inhibitor, partial curve, poor fit] |  |
| Cc1ccc(S(=O)(=O)N(Cc2cccnc2)Cc2cc3ccccc3[nH]c2=O)cc1 | inactive |  |
| COc1ccc(/C=N/NC(=O)c2ccn[nH]2)cc1COc1ccc([N+](=O)[O-])c(C)c1 | inactive |  |
| COc1ccc(NC(=O)Cc2coc3cc(C)c(C(C)C)cc23)cc1S(=O)(=O)N1CCOCC1 | inconclusive: 50.1 µM [inhibitor, partial curve, poor fit] |  |
| CCOc1ccc(S(=O)(=O)Nc2ccc3c(c2)CCCN3S(=O)(=O)c2ccc(C)cc2)cc1 | inconclusive: 89.1 µM [inhibitor, partial curve, poor fit] |  |
| Cc1ccc2nc(N)[nH]c(=O)c2c1Sc1ccncc1 |  | inactive: -26.3% [at 22.9 µM] |

6 consecutive records from above, for reference:

| Compound | Potency | activity change, negative = inhibition |
| --- | --- | --- |
| CCN(c1ccccc1)S(=O)(=O)c1cc(C(=O)NCC(c2ccco2)N2CCCCC2)ccc1C (centres undefined) | inactive |  |
| CN1CCN(C(=O)C2=C[C@H](c3csc4ccccc34)C[C@H](OCCCCO)O2)CC1 | inconclusive: 112 µM [inhibitor, partial curve, poor fit] |  |
| Cc1ccc(S(=O)(=O)N(Cc2cccnc2)Cc2cc3ccccc3[nH]c2=O)cc1 | inactive |  |
| COc1ccc(/C=N/NC(=O)c2ccn[nH]2)cc1COc1ccc([N+](=O)[O-])c(C)c1 | inactive |  |
| COc1ccc(NC(=O)Cc2coc3cc(C)c(C(C)C)cc23)cc1S(=O)(=O)N1CCOCC1 | inconclusive: 50.1 µM [inhibitor, partial curve, poor fit] |  |
| CCOc1ccc(S(=O)(=O)Nc2ccc3c(c2)CCCN3S(=O)(=O)c2ccc(C)cc2)cc1 | inconclusive: 89.1 µM [inhibitor, partial curve, poor fit] |  |

The list continues:

| Compound | Potency | activity change, negative = inhibition |
| --- | --- | --- |
| Cc1ccc(SCC(=O)NC2(C#N)CCCCC2)nc1 | inconclusive: 44.7 µM [inhibitor, partial curve] |  |
| COc1cc(C2C(C#N)=C(N)Oc3cc(C)n(CCc4ccccc4)c(=O)c32)cc2c1OCO2 (centres undefined) | inconclusive: 35.5 µM [inhibitor, partial curve, poor fit] |  |
| CCOC(=O)c1ccc(Nc2nc(-c3cc4cc(Br)ccc4oc3=O)cs2)cc1 | inactive |  |
| CN(C)c1nc(NC(C)(C)C)nc(SCC(=O)Nc2ccccc2)n1 | inconclusive: 89.1 µM [inhibitor, partial curve, poor fit] |  |
| O=C(COc1coc(CN2CCCc3ccccc32)cc1=O)Nc1ccc([N+](=O)[O-])cc1 | inconclusive: 5.62 µM [inhibitor, partial curve, poor fit] |  |
| Cn1ccnc1C(O)c1cccc(OCc2ccccc2)c1 (centres undefined) | inactive |  |
| COc1cccc(/C=N/NC(=O)c2ccc([N+](=O)[O-])cc2Cl)c1O | inactive |  |
| CCCOc1ccc(C(=O)Nc2ccc(NC(=O)c3ccc(Br)cc3)cc2)cc1 | inconclusive: 4.47 µM [inhibitor, full curve] |  |
| Cc1ccc(-n2cc(C(=O)c3cc(C)ccc3O)cc(C#N)c2=O)cc1 | inconclusive: 15.8 µM [inhibitor, partial curve, poor fit] |  |
| CCC(C)Cc1nccc(C2(c3ccccc3Cl)CCNCC2)n1 (centres undefined) | inactive |  |
| O=C1CCCN1CCCN1C(=O)[C@H]2CN(Cc3cccc(Cl)c3F)C[C@H]2C1=O | inactive |  |
| CCSc1nc2c(c(=O)[nH]1)C(c1ccc(C)o1)C1=C(CCCC1=O)N2 (centres undefined) | inconclusive: 0.178 µM [inhibitor, full curve, poor fit] |  |
| Cn1cc(C(=O)NC2CC(c3cc(N4CCOCC4)ncn3)C2)cn1 (centres undefined) | inactive |  |
| Cc1nc2ccccn2c1/C(O)=C1\C(=O)C(=O)N(CCCn2ccnc2)C1c1ccncc1 (centres undefined) | inconclusive: 89.1 µM [inhibitor, single point] |  |
| CCOC1=C2[C@@H](CN(S(=O)(=O)c3ccc(C)cc3)[C@H]2c2ccc(CC)cc2)[C@H]2C(=O)N(c3ccccc3)C(=O)[C@H]2C1 | inconclusive: 100 µM [inhibitor, single point] |  |
| COC(=O)c1cc(CNC(=O)CC(C)c2ccccc2)ccc1OC (centres undefined) |  | inconclusive: -30.2% [inhibitor] |
| CC(C)NC(=O)C1CCN(Cc2cccc(Oc3ccccc3)c2)CC1 | inconclusive: 5.01 µM [inhibitor, full curve, poor fit] |  |
| CCCN(CC(=O)Nc1ccccc1OC)C(=O)c1cc(-c2ccccc2)nn1-c1ccccc1 | active: 44.7 µM |  |
| COc1ccc(C(=O)NC(=S)N2CCC(C)CC2)cc1 | inconclusive: 50.1 µM [inhibitor, partial curve, poor fit] |  |
| COc1ccccc1OCC(=O)Nc1cc(-c2ccccc2)no1 | inconclusive: 56.2 µM [inhibitor, partial curve, poor fit] |  |
